In US10610608B2 (Rochester Institute of Technology, priority 2013, dated 2020):

assay: general procedure: solution-phase peptide synthesis; TBTU/HOBt/DIPA; settings: conjugation step

Row | Substance | conjugation yield
1 | c(RGDyK)-Su-Lys(Cy5.5)-Lys(Gd-DOTA)-NH2 | 45%
2 | c(RGDyK)-SMCC-DLys(Gd-DOTA)-Lys(Gd-DOTA)-NH2 | 38.1%
3 | c(RGDyK)-SMCC-Lys(Gd-DOTA)-NH2 | 34.9.0%
4 | c(RGDyK)-SMCC-DLys(Cy5.5)-Lys(Gd-DOTA)-NH2 | 36.7%
5 | c(RGDyK)-Su-Lys(Gd)—NH2 | 12.4%
